Experimental data as given in publication PMC11119796.
No constants are given. Whether binding was seen depends on the method and setting. Binding seen in cells or lysates may run through a third protein. Some entries that bind do so weakly or less than the wild type. For some assays here: Sequences can lack the tags named with a protein.

Protein sequences, listed by entry. Tags and fused reporters are not part of them.
UniProt P52480: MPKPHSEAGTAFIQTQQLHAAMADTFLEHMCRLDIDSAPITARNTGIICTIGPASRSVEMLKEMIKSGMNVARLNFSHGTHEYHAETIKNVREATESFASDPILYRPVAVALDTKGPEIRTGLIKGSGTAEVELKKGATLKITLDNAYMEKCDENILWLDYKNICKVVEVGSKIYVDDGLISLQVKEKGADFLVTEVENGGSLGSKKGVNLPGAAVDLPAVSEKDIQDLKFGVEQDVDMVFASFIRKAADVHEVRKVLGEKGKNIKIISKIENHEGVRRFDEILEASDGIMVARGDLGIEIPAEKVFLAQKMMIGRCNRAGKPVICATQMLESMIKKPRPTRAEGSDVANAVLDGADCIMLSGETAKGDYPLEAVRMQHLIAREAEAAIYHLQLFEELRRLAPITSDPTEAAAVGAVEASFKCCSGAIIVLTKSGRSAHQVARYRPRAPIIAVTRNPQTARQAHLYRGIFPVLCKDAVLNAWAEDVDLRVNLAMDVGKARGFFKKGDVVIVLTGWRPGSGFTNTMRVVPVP

Assays:
[1] = target: PKM2-Flag (pyruvate kinase isozyme M2, Flag-tagged) (UniProt P52480); experiment: co-IP; HEK293T cells transfected with ISLR-GFP and PKM2-Flag, cultured 2 d; Flag antibody or ISLR antibody as the bait; Western blot; also under H2O2 treatment (Figure S3A)
Pkm2-3×Flag = Pkm2-3×Flag (UniProt P52480); experiment: co-IP; HEK293T cells expressing Pkm2-3×Flag with or without ISLR overexpression, cultured 2 d, then 7 μM H2O2 for 3 h; FLAG antibody as the bait; Western blot of endogenous PKM2

| binding [1] | binding (Pkm2-3×Flag) | Binder |
| --- | --- | --- |
| binds | – | ISLR-GFP (immunoglobulin superfamily containing leucine-rich repeat, GFP-tagged) (protein, UniProt Q6GU68 19-428) CPEPCDCGEKYGFQIADCAYRDLEGVPPGFPANVTTLSLSANRLPGLPEGAFREVPLLQSLWLAHNEIRSVAIGALAPLSHLKSLDLSHNLLSEFAWSDLHNLSALQLLKMDSNELAFIPRDAFSSLSALRSLQLNHNRLHALAEGTFAPLTALSHLQINDNPFDCTCGIVWFKTWALASAVSIPEQDNIACTTPHVLKGIPLGRLPPLPCSAPSVQLSYQPSQDGAELRPGFVLALHCDVDGQPVPQLHWHIHTPGGTVEIASPNVGTDGRALPGALATSGQPRFQAFANGSLLIPDFGKLEEGTYSCLATNELGSAESSVNVALATPGEGGEDAVGHKFHGKAVEGKGCYTVDNEVQPSGPEDNVVIIYLSRAGPPEAAIAADGRPAQQFSGILLLGQSLLVLSFFYF |
| – | binds | ISLR (construct not stated) (protein, UniProt Q6GU68 19-428) CPEPCDCGEKYGFQIADCAYRDLEGVPPGFPANVTTLSLSANRLPGLPEGAFREVPLLQSLWLAHNEIRSVAIGALAPLSHLKSLDLSHNLLSEFAWSDLHNLSALQLLKMDSNELAFIPRDAFSSLSALRSLQLNHNRLHALAEGTFAPLTALSHLQINDNPFDCTCGIVWFKTWALASAVSIPEQDNIACTTPHVLKGIPLGRLPPLPCSAPSVQLSYQPSQDGAELRPGFVLALHCDVDGQPVPQLHWHIHTPGGTVEIASPNVGTDGRALPGALATSGQPRFQAFANGSLLIPDFGKLEEGTYSCLATNELGSAESSVNVALATPGEGGEDAVGHKFHGKAVEGKGCYTVDNEVQPSGPEDNVVIIYLSRAGPPEAAIAADGRPAQQFSGILLLGQSLLVLSFFYF |
